Measured data: PubChem BioAssay AID1259424 (University of Nebraska Medical Center, 2018)
Shown is one part, drawn at random, of about 14,000 deposited reagents. 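Higher correlation or smaller distance means closer resemblance to KSR1 loss; control wells, including KSR1 knockdowns, recur on many plates.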 Not all columns of the deposit are shown. Reagent sequences are not shown. Not given: the time to read-out.

Purpose: 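Rank knockdowns across the genome by resemblance to the KSR1 depletion profile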 (primary screen)
System: human HCT116 colon cancer cells
Reagents: siRNA pool against human genes, 50 nM
Read-out: 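Log2 levels of six mRNAs (branched-DNA multiplex), adjusted by two reference genes and the non-targeting median, then scored against the average KSR1 knockdown pattern as Pearson r and euclidean distance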
Reading the numbers: mean correlation with KSR1 profile: higher = expression change more like KSR1 knockdown

| gene symbol | mean correlation with KSR1 profile |
| --- | --- |
| LINC02249 (GeneID 26082) | 0.471 |
| NGRN (GeneID 51335) | -0.806 |
| CLCNKB (GeneID 1188) | -0.534 |
| IFNAR2 (GeneID 3455) | -0.12 |
| OBP2B (GeneID 29989) | -0.55 |
| LAMTOR3 (GeneID 8649) | -0.758 |
| HTN1 (GeneID 3346) | 0.149 |
| ZNF227 (GeneID 7770) | -0.378 |
| POLM (GeneID 27434) | -0.282 |
| ABTB2 (GeneID 25841) | 0.738 |
| CHRNB3 (GeneID 1142) | -0.651 |
| SP3 (GeneID 6670) | 0.613 |
| LARP1B (GeneID 55132) | -0.174 |
| TMEM141 (GeneID 85014) | 0.406 |
| NEO1 (GeneID 4756) | 0.527 |
| PSMA7 (GeneID 5688) | 0.0488 |
| TK2 (GeneID 7084) | -0.278 |
| ADAMTS1 (GeneID 9510) | -0.651 |
| OR3A1 (GeneID 4994) | 0.817 |
| TGIF2LX (GeneID 90316) | -0.118 |
| TGDS (GeneID 23483) | -0.637 |
| RNLS (GeneID 55328) | -0.339 |
| UGT1A4 (GeneID 54657) | -0.0264 |
| FBXL3 (GeneID 26224) | -0.256 |
| MYLIP (GeneID 29116) | 0.296 |
| DNAJC28 (GeneID 54943) | -0.278 |
| CRYAA (GeneID 1409) | -0.142 |
| ELP6 (GeneID 54859) | 0.367 |
| RPL37A (GeneID 6168) | -0.486 |
| FTSJ1 (GeneID 24140) | -0.201 |
| NCAPH2 (GeneID 29781) | -0.345 |
| TUBGCP3 (GeneID 10426) | -0.53 |
| PRKCQ (GeneID 5588) | 0.204 |
| CNIH1 (GeneID 10175) | -0.448 |
| PPM1F (GeneID 9647) | -0.598 |
| SCN1A (GeneID 6323) | 0.63 |
| OGFRL1 (GeneID 79627) | 0.632 |
| SMAD9 (GeneID 4093) | 0.136 |
| OPTN (GeneID 10133) | -0.163 |
| SPATA16 (GeneID 83893) | 0.844 |
| HEXIM1 (GeneID 10614) | -0.496 |
| SSH1 (GeneID 54434) | -0.144 |
| SSU72 (GeneID 29101) | 0.0668 |
| KHK (GeneID 3795) | 0.581 |
| FIBCD1 (GeneID 84929) | 0.427 |
| DAXX (GeneID 1616) | 0.48 |
| TFE3 (GeneID 7030) | 0.477 |
| LPGAT1 (GeneID 9926) | -0.823 |
| SPCS2 (GeneID 9789) | -0.0623 |
| NDST2 (GeneID 8509) | 0.078 |
